Assay results taken from patent US9579384B2, “Method of treating bendamustine-responsive conditions in patients requiring reduced volumes for administration” (Eagle Pharmaceuticals, Inc., priority 2012, dated 2017).
Counter-ions that a name gives are not always drawn. The name of at least one read-out is uncertain.

Experiment: Measured solubility of bendamustine HCl in the diluent/solubilizer combination at room temperature
Type: physicochemical
Procedure: The solubility of the diluent/solubilizer combination far exceeded the bendamustine concentration, thus assuring the avoidance of precipitated drug prior to or during administration. As will be appreciated by those of ordinary skill, as the concentration of solubilizers increases with respect to the total volume in small administration doses, the solubility of the bendamustine is maintained.
Bendamustine formulations containing the above ingredients are capable of delivering approximately 360 mg of the drug as the HCl salt in volumes of pharmaceutically acceptable diluent ranging from about 120 ml down to about 15 ml.

SMILES: Cn1c(CCCC(=O)O)nc2cc(N(CCCl)CCCl)ccc21 [bendamustine HCl, Bendamustine HCl]
- measured solubility of the bendamustine HCl in the diluent/solubilizer combination (50 ml half normal saline/dextrose + 1 ml of 25 mg/ml bendamustine HCl and solubilizers (PG, PEG 400)): 14.2 mg/mL
- measured solubility of the bendamustine HCl in the diluent/solubilizer combination (50 ml normal saline + 1 ml of 25 mg/ml bendamustine HCl and solubilizers (PG, PEG 400)): 10.5 mg/mL
